From paper doi:10.1101/2025.05.28.656585
No constants are given. Whether binding was seen depends on the method and setting. Binding seen in cells or lysates may run through a third protein. Some entries that bind do so weakly or less than the wild type. Sequences can lack the tags named with a protein.

Protein sequences, listed by entry. Tags and fused reporters are not part of them. Lines headed by an entry give the natural chain unless they say otherwise; changes in a name come on top.
UniProt P46824, whole entry: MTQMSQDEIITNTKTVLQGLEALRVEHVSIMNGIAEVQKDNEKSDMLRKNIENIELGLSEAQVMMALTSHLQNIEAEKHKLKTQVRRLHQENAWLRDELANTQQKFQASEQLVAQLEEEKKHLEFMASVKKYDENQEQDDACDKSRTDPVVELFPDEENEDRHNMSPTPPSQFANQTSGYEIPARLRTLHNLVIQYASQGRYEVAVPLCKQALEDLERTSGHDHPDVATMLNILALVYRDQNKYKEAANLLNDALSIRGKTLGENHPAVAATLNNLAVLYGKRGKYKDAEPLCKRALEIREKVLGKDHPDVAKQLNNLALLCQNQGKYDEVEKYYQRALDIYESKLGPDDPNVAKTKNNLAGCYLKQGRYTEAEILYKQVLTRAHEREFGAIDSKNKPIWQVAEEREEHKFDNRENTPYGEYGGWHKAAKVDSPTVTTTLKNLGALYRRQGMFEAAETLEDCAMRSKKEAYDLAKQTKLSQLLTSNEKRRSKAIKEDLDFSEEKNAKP

What was measured:
Assay in all cases: co-IP
[1] = target: T1, myc-tagged dNischarin (CG11807) (Drosophila) (UniProt Q7K490)
T1 sequence: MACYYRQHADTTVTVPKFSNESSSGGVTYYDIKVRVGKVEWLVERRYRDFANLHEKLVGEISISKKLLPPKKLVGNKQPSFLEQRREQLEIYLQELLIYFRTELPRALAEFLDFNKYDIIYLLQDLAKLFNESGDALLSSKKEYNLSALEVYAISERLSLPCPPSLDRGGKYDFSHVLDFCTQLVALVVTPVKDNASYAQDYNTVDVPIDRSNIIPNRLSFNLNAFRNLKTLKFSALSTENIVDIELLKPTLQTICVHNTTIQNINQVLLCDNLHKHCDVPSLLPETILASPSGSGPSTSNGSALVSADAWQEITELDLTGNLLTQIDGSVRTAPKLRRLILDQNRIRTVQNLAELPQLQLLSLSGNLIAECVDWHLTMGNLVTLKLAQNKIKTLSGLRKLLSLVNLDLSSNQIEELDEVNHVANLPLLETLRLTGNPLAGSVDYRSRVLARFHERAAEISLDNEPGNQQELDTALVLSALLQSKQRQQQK

[2] = target: T2, myc-tagged truncated N2-Syd (Syd 1-529) (Drosophila) (UniProt Q9GQF1)
T2 sequence: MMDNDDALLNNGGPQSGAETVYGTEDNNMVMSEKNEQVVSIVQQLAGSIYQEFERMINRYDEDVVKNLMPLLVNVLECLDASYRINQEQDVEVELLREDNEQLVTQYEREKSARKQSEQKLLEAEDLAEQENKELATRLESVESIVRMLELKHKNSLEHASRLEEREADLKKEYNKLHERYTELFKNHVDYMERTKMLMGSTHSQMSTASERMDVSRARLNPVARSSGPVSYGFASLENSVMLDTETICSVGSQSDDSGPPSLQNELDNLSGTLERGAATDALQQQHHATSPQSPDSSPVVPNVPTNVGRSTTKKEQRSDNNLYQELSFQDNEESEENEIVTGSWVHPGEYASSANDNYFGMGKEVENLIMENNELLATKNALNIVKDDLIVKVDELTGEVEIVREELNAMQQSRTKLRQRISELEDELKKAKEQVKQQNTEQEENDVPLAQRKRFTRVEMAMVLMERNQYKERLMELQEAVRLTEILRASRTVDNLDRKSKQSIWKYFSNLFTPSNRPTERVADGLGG

[3] = target: T3, myc-tagged full length Sunday Driver (Syd/dJIP3/4) (Drosophila) (UniProt Q9GQF1)
T3 sequence: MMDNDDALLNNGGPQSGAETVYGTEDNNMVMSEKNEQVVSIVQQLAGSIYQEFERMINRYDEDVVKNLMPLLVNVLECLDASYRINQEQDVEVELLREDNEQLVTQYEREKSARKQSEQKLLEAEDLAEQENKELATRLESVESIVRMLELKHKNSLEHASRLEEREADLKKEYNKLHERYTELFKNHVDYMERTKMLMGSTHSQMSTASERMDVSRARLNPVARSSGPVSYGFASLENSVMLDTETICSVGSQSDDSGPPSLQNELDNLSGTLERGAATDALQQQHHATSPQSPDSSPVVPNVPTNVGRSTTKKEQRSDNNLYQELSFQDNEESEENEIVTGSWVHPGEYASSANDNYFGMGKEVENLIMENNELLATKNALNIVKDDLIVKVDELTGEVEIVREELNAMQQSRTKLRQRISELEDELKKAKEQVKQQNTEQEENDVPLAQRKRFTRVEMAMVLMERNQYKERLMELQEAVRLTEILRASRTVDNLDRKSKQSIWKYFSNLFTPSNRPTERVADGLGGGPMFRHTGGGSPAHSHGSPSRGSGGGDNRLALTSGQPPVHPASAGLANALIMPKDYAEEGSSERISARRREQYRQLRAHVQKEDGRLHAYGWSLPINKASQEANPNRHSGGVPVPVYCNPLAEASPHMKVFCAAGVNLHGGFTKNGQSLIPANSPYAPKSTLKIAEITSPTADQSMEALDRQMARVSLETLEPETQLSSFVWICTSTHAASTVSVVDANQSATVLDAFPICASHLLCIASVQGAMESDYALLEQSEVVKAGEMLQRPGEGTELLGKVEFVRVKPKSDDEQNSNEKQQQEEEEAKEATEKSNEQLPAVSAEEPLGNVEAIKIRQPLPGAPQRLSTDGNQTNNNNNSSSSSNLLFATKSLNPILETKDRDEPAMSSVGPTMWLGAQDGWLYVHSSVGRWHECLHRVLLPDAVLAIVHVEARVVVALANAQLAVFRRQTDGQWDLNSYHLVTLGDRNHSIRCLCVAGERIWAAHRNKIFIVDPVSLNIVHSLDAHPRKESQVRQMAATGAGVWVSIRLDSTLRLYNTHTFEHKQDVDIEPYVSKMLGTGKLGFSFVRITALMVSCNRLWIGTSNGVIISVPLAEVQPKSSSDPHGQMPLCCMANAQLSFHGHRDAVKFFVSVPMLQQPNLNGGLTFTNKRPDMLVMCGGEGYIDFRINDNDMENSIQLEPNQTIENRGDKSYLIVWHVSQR

[4] = target: HA-tagged wild type Rab2 (Drosophila) (UniProt O18333)
[5] = target: HA-tagged GTP-locked, constitutively active Rab2 Q65L (Drosophila) (UniProt O18333)

Molecule: HA-tagged GTP-locked, constitutively active Rab2 Q65L (from UniProt O18333 1-213)
- binding [1]: binds weakly
- binding [2]: binds
- binding [3]: binds

Molecule: FLAG-tagged kinesin-1 light chain (Klc) (from UniProt P46824 1-508)
- binding [2]: binds

B1: myc-tagged full length Sunday Driver (Syd/dJIP3/4) (protein, UniProt Q9GQF1 1-1227)
chain: T3 sequence
- binding [4]: binds
- binding [5]: binds

B2: myc-tagged truncated N2-Syd (Syd 1-529) (domain or fragment, UniProt Q9GQF1 1-529)
chain: T2 sequence
- binding [4]: binds
- binding [5]: binds
